Results from PubChem BioAssay AID540256 (National Center for Advancing Translational Sciences (NCATS), 2011).
Among all 300,000 compounds or so, about 3,700 (1.2%) were called active. Inconclusive results, whose numbers are uncertain, are shown with a selection of clear calls. Calls follow the shape of the full dose curve; tested in HEK293 cells. Potencies of inconclusive entries are doubtful fits and often do not repeat.

Test: qHTS for Inhibitors of binding or entry into cells for Lassa Virus; also: nearly all actives have a fitted effect of over 50% in size
Details: Lassa virus pseudotype entry inhibition, cell reporter; series mostly up to 37.9 µM
Potency is read from the fitted curve at half-maximal effect.

| SMILES | Potency |
| --- | --- |
| O=C1C2C3C=CC(C3)C2C(=O)N1c1nccs1 (stereo not given) | inconclusive: 29.1 µM [inhibitor, single point] |
| O=C(Nc1ccc(SC(F)F)cc1)C1=COCCO1 | inconclusive: 14.6 µM [inhibitor, single point] |
| Cc1ccc(C)c(Cn2c3ccccc3c3cnn(CC(=O)NCC(C)c4ccccc4)c(=O)c32)c1 (stereo not given) | inconclusive: 2.82 µM [inhibitor, single point] |
| Cc1nc(-n2nc(C)c(Cc3ccc(Cl)cc3)c2C)sc1C(=O)N1CCCCC1C (stereo not given) | inactive |
| Cc1ccc(Cl)cc1NC(=O)Cn1nc(-c2cccs2)ccc1=O | inconclusive: 3.16 µM [inhibitor, single point] |
| COc1cccc(NC(=O)CSc2nccn2Cc2ccc3c(c2)OCO3)c1 | inactive |
| COc1ccc(NS(=O)(=O)c2ccc(NC(=S)NC(=O)CC(C)C)cc2)cc1 | inconclusive: 35.5 µM [inhibitor, single point] |
| Cn1cccc1CC(=O)N/N=C/C=C/c1ccccc1 | inactive |
| O=C(N/N=C/c1ccc(OC(F)F)cc1)c1ccc(CSc2nc3ccccc3[nH]2)cc1 | inconclusive: 8.2 µM [inhibitor, partial curve, poor fit] |
| C=Cn1ccnc1P(=S)(c1nccn1C=C)c1nccn1C=C | inactive |
| COc1ccc2c(c1)CCC1C2CC[C@@]2(C)C1CC[C@@H]2NCCCCCCN1C(=O)CCC1=O (stereo not given in full) | active: 13 µM |
| Cc1ccc(C(=O)Nc2ccc(OCc3ccccc3)cc2)cc1[N+](=O)[O-] | inconclusive: 0.0082 µM [inhibitor, full curve, poor fit] |
| O=C1C=C(c2ccccc2)C(=O)N1Nc1ccccc1 | inconclusive: 35.5 µM [inhibitor, single point] |
| NS(=O)(=O)c1ccc(NC(=O)CN2CCc3ccccc32)cc1 | inconclusive: 5.62 µM [inhibitor, partial curve, poor fit] |
| COC(=O)c1ccc(N/C=C\C(=O)c2ccc3c(c2)OCO3)cc1 | inactive |
| NNC(=O)c1cc2ccccc2cc1NS(=O)(=O)c1ccccc1 | inconclusive: 3.55 µM [inhibitor, single point] |
| Cc1cc(C)nc(SCc2ccc(C(=O)N/N=C3\CC(C)CC(C)(C)C3)cc2)n1 (stereo not given) | inactive |
| O=C(Cn1ccsc1=NC(=O)C(F)(F)F)c1ccccc1 | inactive |
| Cc1nn(-c2ccccc2)c(C)c1CCC(=O)O | inconclusive: 20.6 µM [activator, partial curve, poor fit] |
| COc1cc2c(cc1OC)C(C)N(CCc1ccc(Cl)cc1)CC2 (stereo not given) | inconclusive: 35.5 µM [inhibitor, single point] |

Part of the list above, as labelled records:
O=C(N/N=C/c1ccc(OC(F)F)cc1)c1ccc(CSc2nc3ccccc3[nH]2)cc1
  Potency: inconclusive: 8.2 µM [inhibitor, partial curve, poor fit]
C=Cn1ccnc1P(=S)(c1nccn1C=C)c1nccn1C=C
  Potency: inactive
